From PMC12700556 come the findings set out here.

By UniProt entry, the sequences of proteins in these tests, tags left out. Where a name states a change or a piece, a line headed by the entry shows the natural chain unless it says otherwise.
UniProt P15090: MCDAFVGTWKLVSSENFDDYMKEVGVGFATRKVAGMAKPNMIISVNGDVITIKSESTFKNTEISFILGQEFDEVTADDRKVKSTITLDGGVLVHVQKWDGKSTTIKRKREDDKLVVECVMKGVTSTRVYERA
UniProt P05556: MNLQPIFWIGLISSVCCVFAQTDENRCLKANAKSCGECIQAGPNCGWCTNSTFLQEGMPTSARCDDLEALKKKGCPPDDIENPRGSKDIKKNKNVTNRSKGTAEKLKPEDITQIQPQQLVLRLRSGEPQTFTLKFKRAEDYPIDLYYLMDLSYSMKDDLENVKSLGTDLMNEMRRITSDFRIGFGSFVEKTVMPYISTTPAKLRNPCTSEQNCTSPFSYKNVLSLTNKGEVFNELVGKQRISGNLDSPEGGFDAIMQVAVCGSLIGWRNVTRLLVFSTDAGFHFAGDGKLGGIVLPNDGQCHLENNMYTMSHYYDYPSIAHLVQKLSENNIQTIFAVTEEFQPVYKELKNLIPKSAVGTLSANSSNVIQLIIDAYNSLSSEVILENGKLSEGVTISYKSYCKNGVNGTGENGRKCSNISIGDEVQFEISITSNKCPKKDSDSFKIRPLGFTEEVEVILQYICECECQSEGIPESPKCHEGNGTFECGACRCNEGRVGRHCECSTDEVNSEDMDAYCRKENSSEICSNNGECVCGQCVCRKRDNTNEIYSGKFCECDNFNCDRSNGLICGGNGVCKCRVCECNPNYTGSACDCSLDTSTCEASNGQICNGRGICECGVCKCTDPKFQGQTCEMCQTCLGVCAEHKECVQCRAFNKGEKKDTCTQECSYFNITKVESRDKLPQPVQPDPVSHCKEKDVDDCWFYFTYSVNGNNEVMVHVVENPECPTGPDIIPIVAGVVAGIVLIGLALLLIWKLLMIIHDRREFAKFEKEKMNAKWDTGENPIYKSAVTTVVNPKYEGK

This assay deals with recombinant human FABP4 protein (fatty acid-binding protein 4) (human) (UniProt P15090). As to the kind of experiment: co-IP; reciprocal coimmunoprecipitation of exogenous FABP4 and ITGB1 (n = 2); cells and antibodies not shown; only the target purified.

No constants are given. Whether binding was seen depends on the method and setting. Binding seen in cells or lysates may run through a third protein. Some entries that bind do so weakly or less than the wild type.

Take “integrin β 1 (ITGB1) (from UniProt P05556 21-798) (receptor)”: the binding entry is on record as “binds”.
